# In all, about 360,000 compounds went through this assay and about 7,500 (2.1%) were called active. Inconclusive means that the source gave no clear call. Such entries were picked first, then a sample of the others. The call rests on the fitted dose curve; in most records, active means well fitted inhibition curve with a large enough effect; inconclusive means small, poorly fitted or top-dose-only effect, or effect the other way; inactive means flat fitted curve, though single readings scatter. A potency beside an inconclusive call is a rough fit, not a confirmed value.
# Assay: Nrf2 qHTS screen for inhibitors; further: nearly all actives have a fitted effect of over 60% in size
# Conditions: A549 ARE-Fluc reporter, luciferase luminescence, 18-24 h; activity change, negative = inhibition: at 46 µM (top of the series)
# Summary of the method: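 Reporter: ARE-Fluc in A549. Exposure: 18-24 h, 37 °C, 5% CO2, 5% FBS OPTI-MEM. Readouts: fluorescent cytotoxicity (CellTiter-Fluor), then luminescent Nrf2 signal after BugLite.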
# On the % scale 0 is the no-effect control and ±100 the full control effect; potency means the concentration at half of the fitted maximal effect.
SMILES,Potency,"activity change, negative = inhibition"
CCCn1c(=O)c(C(=O)N/N=C/c2ccc(F)cc2)c(O)c2ccccc21,"inconclusive: 5.17 µM [activator, partial curve]",
COc1ccc(OC)c(NC(=O)CSCC(=O)O)c1,"inconclusive: 8.2 µM [activator, partial curve, poor fit]",
O=C(CCc1nc(-c2ccccc2F)no1)NCCc1ccccc1Cl,"inconclusive: 23.1 µM [falling, single point]",
Cc1ccc(-c2nc3ncccc3o2)cc1NC(=O)c1ccc([N+](=O)[O-])o1,"inconclusive: 23.1 µM [activator, single point]",
CC(=O)Nc1cccc(NC(=O)CSc2nnc(Cc3cccn3C)n2CCc2ccccc2)c1,"inconclusive: 6.51 µM [activator, single point]",
COc1ccccc1C(=O)Nc1ccc(Cc2ccncc2)cc1,,inactive: -21.9%
Cc1sc(NC(=O)CSc2nc(N)cc(N)n2)c(C#N)c1C,active: 20.6 µM,
O=C(CNC(=O)c1ccccc1F)OCc1cc(=O)n2nc(C3CCCCC3)sc2n1,"inconclusive: 8.2 µM [activator, partial curve, poor fit]",
COc1ccc(-c2oc(=O)c3cc(OC)c(OC)cc3c2-c2cc(F)cc(OC)c2)cc1,"inconclusive: 29.1 µM [falling, single point]",
COC(=O)C1CCN(C(=O)Cc2ccc(Br)cc2)CC1,,inactive: 25.6%
O=S(=O)(c1ccc(-c2csc(=Nc3ccc(OC(F)(F)Cl)cc3)n2CCCO)cc1)N1CCCC1,active: 6.51 µM,
Cc1cc(Cn2nc(-c3ccccc3)cc2C(=O)NCc2cccc(C(F)(F)F)c2)on1,"inconclusive: 29.1 µM [falling, single point]",
CCN(CC)C(=O)CSc1nc2cc3c(cc2c(=O)n1Cc1ccc(OC)cc1)OCO3,"inconclusive: 6.51 µM [activator, single point]",
O=C(NCc1cccc(Cl)c1)C1CCCN(c2ncnc3c2nc2n3CCCCC2)C1 (stereo unspecified),"inconclusive: 29.1 µM [falling, single point]",
O=c1/c(=C\c2cccnc2)sc2nc3ccccc3n12,"inconclusive: 13 µM [activator, partial curve]",
Cc1ccsc1C1C=C(c2cccc(Br)c2)Nc2ncnn21 (stereo unspecified),,inactive: -10.6%
CCCCn1c(NC(=O)c2ccco2)c(S(=O)(=O)c2ccc(C)cc2)c2nc3ccccc3nc21,,inactive: -22.1%
CN(Cc1ccccc1)c1ccc(S(=O)(=O)N2CCC(C(=O)O)CC2)cc1[N+](=O)[O-],"inconclusive: 23.1 µM [falling, single point]",
CCOc1nc(-c2ccccc2)ccc1-c1noc(-c2cccnc2)n1,"inconclusive: 23.1 µM [activator, partial curve, poor fit]",
Cc1cc(C(=O)Nc2nc(-c3ccccn3)cs2)ccc1[N+](=O)[O-],"inconclusive: 10.3 µM [falling, partial curve, poor fit]",
Cc1c(/C(O)=C2\C(=O)C(=O)N(CCN(C)C)C2c2cccs2)cnn1-c1ccccc1 (stereo unspecified),"inconclusive: 13 µM [activator, partial curve]",
N#C/C(=C(\O)CCl)c1nnc2n1CCCCC2,"inconclusive: 16.4 µM [activator, partial curve, poor fit]",

SMILES,Potency,"activity change, negative = inhibition"
C(=N\Nc1nc(Nc2ccccc2)nc(Nc2ccccc2)n1)/c1ccncc1,,inactive: 6.81%
COc1ccc(-c2csc(-c3ccc(C(=O)O)cc3)n2)cc1,"inconclusive: 0.517 µM [activator, full curve]",
O=c1c2ccccc2nc(-c2ccccc2)n1Cc1ccco1,"inconclusive: 29.1 µM [falling, single point]",
COc1ccc(CCNC(=O)c2cc(-c3ccccc3OC)on2)cc1OC,"inconclusive: 11.6 µM [falling, partial curve, poor fit]",
COc1ccc(-c2nn(-c3ccccc3)cc2CNC(=O)c2cccc([N+](=O)[O-])c2)cc1,"inconclusive: 2.59 µM [activator, partial curve, poor fit]",
COc1ccc([N+](=O)[O-])cc1C1NN=C(c2ccccc2O)S1 (stereo unspecified),"inconclusive: 18.4 µM [falling, partial curve, poor fit]",
O=C(Oc1ccc(NC2=C(Cl)C(=O)c3ccccc3C2=O)cc1)c1ccc([N+](=O)[O-])cc1,,inactive: 10.5%
Cc1cc(C)cc(NC(=O)c2cc(C)nn2C)c1,"inconclusive: 3.26 µM [activator, full curve]",
CCCCCCc1cc2cc(C(=O)NCc3ccccc3)c(=N)oc2cc1O,"inconclusive: 0.651 µM [falling, partial curve, poor fit]",
O=C(Cc1ccccc1)N[C@@H]1c2ccccc2CC[C@@H]1OCc1ccccc1,,inactive: -1.79%
COC(=O)c1c(NC(=O)Cc2cccs2)sc(C(=O)N2CCCCC2)c1C,"inconclusive: 32.6 µM [falling, single point]",
COc1cc(OC)cc(C(=O)NNC(=S)NC2CC2)c1,"inconclusive: 5.17 µM [activator, full curve]",
COc1ccc(N2CCN(C(=O)c3cccc(-n4c(C)nc5cccnc54)c3)CC2)cc1,,inactive: 16.1%
COc1ccc(C2NC(=O)NC(C)=C2C(=O)OC2CCCC(C)C2)cc1 (stereo unspecified),"inconclusive: 23.1 µM [falling, single point]",
CCc1cccc(NC(=O)c2cn3c4c(ccc(Cl)c4c2=O)OC(C)C3)c1 (stereo unspecified),,inactive: 27.8%
CN1N=C(N)c2cn(C3OC(COP(=O)(O)O)C(O)C3O)c3ncnc1c23 (stereo unspecified),,inactive: -18.9%
Cc1c(C(=O)NCc2ccccc2)oc2ccc(S(=O)(=O)N3CCC4(CC3)OCCO4)cc12,active: 20.6 µM,
O=C(c1cc(COc2ccc3ncccc3c2)on1)N1CCCC1,active: 4.11 µM,
Cc1ccc2nc(N3CCN(c4ccccc4)CC3)c3nnnn3c2c1,"inconclusive: 29.1 µM [activator, single point]",
O=C(c1ccc(Br)cc1)N(Cc1nc2ccccc2c(=O)[nH]1)C1CCCC1,"inconclusive: 20.6 µM [falling, partial curve]",
CCc1cccc(-n2c(=O)c3cccnc3n2CC(=O)NCc2ccccc2)c1,"inconclusive: 32.6 µM [falling, single point]",
CN(C)c1cccc(C(=O)NNC(=O)CN2C(=O)C3CC=CCC3C2=O)c1 (stereo unspecified),"inconclusive: 18.4 µM [activator, partial curve]",

# 2 consecutive entries already listed:
SMILES,Potency,"activity change, negative = inhibition"
N#C/C(=C(\O)CCl)c1nnc2n1CCCCC2,"inconclusive: 16.4 µM [activator, partial curve, poor fit]",
C(=N\Nc1nc(Nc2ccccc2)nc(Nc2ccccc2)n1)/c1ccncc1,,inactive: 6.81%

# (further entries)

SMILES,Potency,"activity change, negative = inhibition"
Cc1ccc(C)c(N(CC(=O)NC(C)(C)C)C(=O)CCC(=O)Nc2nccs2)c1,,inactive: 3.69%
Cn1c(NCCCN2CCOCC2)nc2c1c(=O)n(Cc1ccc(Cl)c(Cl)c1)c(=O)n2C,,inactive: -12.2%
Cc1cc(NC(=O)CC#N)n(-c2nc3ccccc3[nH]2)n1,,inactive: 0.549%
Cc1nc2ccc(NC(=O)NCCO)cc2s1,"inconclusive: 18.4 µM [activator, single point]",
CCOc1ccccc1Nc1cc(C)c2cccc(C)c2n1,"inconclusive: 10.3 µM [falling, partial curve, poor fit]",
Cc1ccc(C)c(C(=O)CN2C(=O)c3ccccc3S2(=O)=O)c1,"inconclusive: 29.1 µM [falling, single point]",
CC(=O)c1ccc(N2CCN(C(=O)c3ccc(-c4ccccc4)cc3)CC2)cc1,"inconclusive: 25.9 µM [falling, partial curve]",
CCOc1cc(Cl)c(S(=O)(=O)NCc2ccccn2)cc1Cl,"inconclusive: 14.6 µM [falling, partial curve, poor fit]",
COc1ccc(C(=O)CSc2nc3ccccc3n2CC(=O)c2ccccc2)cc1,"inconclusive: 29.1 µM [falling, single point]",
Nc1cc(C(=O)OCC(=O)N2CCCC2)ccc1Cl,"inconclusive: 16.4 µM [activator, single point]",
Cc1ccsc1/C=C/C1=Cc2c(sc(NC(=O)CSc3n[nH]c(N)n3)c2C#N)C(C)(C)C1,"inconclusive: 16.4 µM [falling, single point]",
O=C1c2ccccc2-c2nc3ccccc3nc21,"inconclusive: 2.59 µM [activator, full curve]",
Cc1ccc(-n2ncc(C(=O)NCCc3ccccc3)c2C2CCN(C(=O)OC(C)(C)C)CC2)c(C)c1,"inconclusive: 29.1 µM [falling, single point]",
c1ccc(-c2ncc(-c3ccn[nH]3)s2)cc1,"inconclusive: 7.31 µM [activator, partial curve]",
COc1ccc(C(=O)O)cc1S(=O)(=O)N1CCN(Cc2ccc3c(c2)OCO3)CC1,,inactive: -6.54%
Cc1cc(NC(=O)C(C)SCC(=O)Nc2cccc(S(=O)(=O)N3CCCCCC3)c2)no1 (stereo unspecified),"inconclusive: 29.1 µM [falling, single point]",
O=C(C1=C[C@H](c2ccc(C(F)(F)F)cc2)C[C@H](OCCCCO)O1)N1CCN(Cc2ccccc2)CC1,"inconclusive: 14.6 µM [falling, single point]",
Cc1c(C(O)(c2ccccc2)c2ccccc2)[n+]2ccccc2n1C,,inactive: -14.2%
c1ccc(-c2csc(-c3ccc(-c4csnn4)cc3)n2)cc1,"inconclusive: 3.66 µM [activator, partial curve]",
CCOC(=O)C1=C(C)NC(C)=C(C(=O)OCC)C1C(=O)OCC(=O)N1CCCCC1CC (stereo unspecified),"inconclusive: 20.6 µM [falling, single point]",
COc1ccc(C(=O)NCCOc2ccccc2Cl)c(OC)c1OC,"inconclusive: 1.84 µM [activator, full curve, poor fit]",
COc1cccc(NC(=O)Cn2c(=O)cc(C)c3c(C)nn(-c4cccc(F)c4)c32)c1,"inconclusive: 1.16 µM [activator, full curve, poor fit]",

# Looked up by structure from the list above, 2 records:
SMILES,Potency,"activity change, negative = inhibition"
CCOC(=O)C1=C(C)NC(C)=C(C(=O)OCC)C1C(=O)OCC(=O)N1CCCCC1CC (stereo unspecified),"inconclusive: 20.6 µM [falling, single point]",
O=C1c2ccccc2-c2nc3ccccc3nc21,"inconclusive: 2.59 µM [activator, full curve]",

# — PubChem BioAssay AID504444 (National Center for Advancing Translational Sciences (NCATS), 2011)
